# Results taken from US20150030583A1, “Methods of Treating Serosal Cancer” (SLOAN KETTERING INSTITUTE FOR CANCER RESEARCH, priority 2011, published 2015).
# Some results were stated once for a whole list of compounds, not compound by compound. For at least one compound, name, drawing or mass did not settle the structure.
# What was measured:
# Ovcar3-GTL catenae = test: Ovcar3-GTL catena drug sensitivity / proliferation screen (alamarBlue, 384-well); conditions: for IC50: read-out: IC50 (μM) Addition on Day 6, Ovcar3-GTL catenae, compound added six days after seeding (established or substantial glycocalyx)
# [1] = tested on: Ovcar5 monolayer (mesenchymal) cells; test: Ovarian cancer monolayer drug sensitivity (alamarBlue), Ovcar5; assay type: cell-based; conditions: subnanomolar to no more than 50 nM
# Description: (§1) The foregoing total of 29 compounds were tested in parallel on ovarian cancer monolayer cells by seeding 100 Ovcar3 monolayer (epithelial) or 25 Ovcar5 monolayer (mesenchymal) cells in 384-well plates. Drugs were added 4 days after cell seeding and cell viability was analyzed by alamarBlue staining. In general, catena cells with an established glycocalyx were on average 4-8 fold more resistant to these compounds when compared to monolayers. […]
# [2] = tested on: Ovcar3 monolayer (epithelial) cells; test: Ovarian cancer monolayer drug sensitivity (alamarBlue), Ovcar3; assay type: cell-based; conditions: subnanomolar to no more than 50 nM
# Description: as §1
Compound,IC50 (Ovcar3-GTL catenae),IC50 [1],IC50 [2],Increased Resistance of catena (Ovcar3-GTL catenae; catena with established glycocalyx versus monolayers)
"Cc1cc(=O)oc2cc(O)ccc12 [4-methylumbelliferone (4-MU), 4-methylumbelliferone]",> 100 µM,,,
"CC[C@@]1(O)C(=O)OCc2c1cc1n(c2=O)Cc2cc3c(N)cccc3nc2-1 [9-aminocamptothecin (9-AC), 9-aminocamptothecin]",> 100 µM,,,
C/C(=C\c1csc(C)n1)[C@@H]1C/C=C(/C(F)(F)F)C/C=C/[C@H](C)[C@H](O)[C@@H](C)C(=O)C(C)(C)[C@@H](O)CC(=O)O1 [fludelone],,≤ 0.05 µM,≤ 0.05 µM,at least 2000 fold
